# Assay results taken from PubChem BioAssay AID540276 (National Center for Advancing Translational Sciences (NCATS), 2011).
# Among all 300,000 compounds or so, about 5,400 (1.8%) were called active. This list was built around the results that the source calls inconclusive (neither active nor inactive); the mix of calls is not that of the screen. The call rests on the fitted dose curve; tested in HEK293 cells. Where the call is inconclusive, the potency comes from a doubtful curve fit. Some structures have more than one record in an assay (separate samples or runs), and their calls can disagree.
# Experiment: qHTS for inhibitors of binding or entry into cells for Marburg Virus
# Details: Marburg virus pseudotyped entry inhibition, cell reporter; series mostly up to 37.8 µM
# Potency means the concentration at half of the fitted maximal effect.
row,Structure (SMILES),Potency
1,O=C(CSc1ccc(Cl)cc1)Nc1ccccc1N1CCN(C(=O)c2ccc(Cl)cc2)CC1,"inconclusive: 17.8 µM [inhibitor, single point]"
2,Oc1ccc(-c2nnc(-c3ccc(O)cc3)nn2)cc1,"inconclusive: 14.1 µM [inhibitor, single point]"
3,CCCC1CCC(=NNS(=O)(=O)c2ccc(C)c([N+](=O)[O-])c2)CC1 (configuration not stated),"inconclusive: 6.31 µM [activator, single point]"
4,CCOc1ccc(N2CC(C(=O)NCCN3C(=O)S/C(=C\c4ccc(OC)cc4)C3=O)CC2=O)cc1 (configuration not stated),"inconclusive: 6.31 µM [activator, full curve, poor fit]"
5,CC(C)N(Cc1ccccc1)C(=O)COC(=O)C1CCN(S(=O)(=O)c2ccc3c(c2)OCCO3)CC1,inactive
6,O=c1[nH]cnc2c1sc1nc3c(c(-c4ccc(Cl)cc4)c12)CCC3,"inconclusive: 0.355 µM [inhibitor, partial curve, poor fit]"
7,COc1ccc(CCn2c(N)c(C(=O)NCc3ccco3)c3nc4ccccc4nc32)cc1,"inconclusive: 15.8 µM [inhibitor, partial curve, poor fit]"
8,Cc1cc(C)n(-c2nc3c(c(=O)[nH]c(=O)n3C)n2CCc2ccccc2)n1,"inconclusive: 35.5 µM [inhibitor, single point]"
9,O=C(Cn1ncc2c(=O)oc3ccccc3c21)NCc1ccccc1Cl,inactive
10,Cc1c(C(=O)O)oc2c3c(ccc12)OCCO3,"inconclusive: 22.4 µM [activator, partial curve, poor fit]"
11,CCOC(=O)c1c(NC(=O)COC(=O)c2ccc(Cl)nc2)sc(C(=O)N(C)C)c1C,inactive
12,CCOC(=O)[C@@]12[C@@H]3[C@@H](CCN3C(=O)N[C@H]1c1ccccc1)C2(C)C,"inconclusive: 1.19 µM [activator, single point]"
13,Cn1c(C(=O)NC2CCCCC2)cc2sccc21,"inconclusive: 1.64 µM [activator, partial curve, poor fit]"
14,CC(=O)c1c(C(C)=O)c(C)n(C2CCCCC2)c1C,inactive
15,N#CC1=C(N)Oc2cc3c(cc2C1c1ccc(Cl)cc1)OCO3 (configuration not stated),inactive
16,CC(=O)Nc1ccc2c(c1)N(C(=O)CN(C)C)c1ccccc1CC2,inactive
17,CCc1cccc(NC(=O)Cn2c(=O)n(CCc3ccc(OC)c(OC)c3)c(=O)c3ccccc32)c1,"inconclusive: 17.8 µM [activator, partial curve, poor fit]"
18,CC(C)CN1C(=O)c2ccc(NC(=O)c3ccco3)cc2C1=O,"inconclusive: 14.1 µM [activator, single point]"
19,O=C(O)c1ccc(NC(=O)c2cn(-c3ccccc3)nc2-c2ccc(F)cc2)cc1,inactive
20,O=C(N/N=C(\Cc1ncc[nH]1)c1ccccc1)c1ccncc1,"inconclusive: 0.708 µM [inhibitor, full curve, poor fit]"
21,O=C(c1ccc(Br)cc1)c1cc([N+](=O)[O-])ccc1N1CCCCC1,active: 0.73 µM
22,Cc1cccc(OCc2nc(-c3nonc3N)no2)c1C,"inconclusive: 13 µM [activator, partial curve, poor fit]"
23,Nc1ccc2c(c1)sc1ccccc12,"inconclusive: 7.08 µM [activator, partial curve]"

row,Structure (SMILES),Potency
1,Cc1ccc(S(=O)(=O)NCCCCCC(=O)N(C)C)cc1,inactive
2,Cc1ccc(CNC(=O)CN(c2ccc(Cl)cc2Cl)S(=O)(=O)c2ccccc2)cc1,"inconclusive: 35.5 µM [inhibitor, single point]"
3,Cc1csc(SCc2nc3sc4c(c3c(=O)[nH]2)CCC4)n1,"inconclusive: 3.26 µM [activator, full curve, poor fit]"
4,Nc1nonc1-c1nc2ccccc2n1Cc1ccc(F)cc1,"inconclusive: 2.91 µM [inhibitor, full curve]"
5,Cc1cc(Cl)ccc1OCCCC(=O)NC1CCN(C)CC1,"inconclusive: 16.4 µM [inhibitor, single point]"
6,O=C(/C=C/c1ccco1)NCC1OCCc2ccccc21 (configuration not stated),inactive
7,CN(C)c1ccc(CNC(=O)CN(C)S(=O)(=O)c2ccc3c(c2)c(=O)n(C)c(=O)n3C)cc1,"inconclusive: 0.562 µM [inhibitor, full curve, poor fit]"
8,C1COC(NC(C2CC2)C2CC2)=N1,active: 11.2 µM
9,Cc1cc(C)c(C#N)c(SCc2nnc(-c3ccccc3)o2)n1,active: 1.16 µM
10,Cc1ccc(C)c(OCC(=O)Nc2ccc3c(c2)OCO3)c1C,"inconclusive: 7.94 µM [inhibitor, partial curve, poor fit]"
11,Cc1ccsc1/C=C(\C(=O)c1ccc(OC(C)C)cc1)c1nc2ccccc2o1,"inconclusive: 5.01 µM [inhibitor, single point]"
12,CCc1ccc(Oc2cc(C)nc(N)n2)cc1,"inconclusive: 25.9 µM [inhibitor, partial curve, poor fit]"
13,CCc1ccc(-c2nc(CCl)cs2)cc1,inactive
14,O=C(N/N=C1\CCc2ccccc21)c1ccccc1Cl,"inconclusive: 1.78 µM [activator, partial curve, poor fit]"
15,CCOC(=O)C1CCN(C(=O)c2ccccc2NS(=O)(=O)c2ccc(F)cc2)CC1,"inconclusive: 31.6 µM [activator, single point]"
16,CCCN1C(=O)C2(c3ccccc31)c1c(oc3ccc(C)cc3c1=O)C(=O)N2CCOC (configuration not stated),inactive
17,Cc1ccc(NC(=O)c2ccc(CSc3nccc(C)n3)cc2)cc1,"inconclusive: 35.5 µM [inhibitor, single point]"
18,CCN(CC)c1ccc(/C=N/NC(=O)c2ccc(Br)o2)cc1,"inconclusive: 35.5 µM [inhibitor, single point]"
19,CCOC(=O)c1cn2nc(Oc3ccc(C)cc3)ccc2n1,"inconclusive: 5.01 µM [activator, full curve]"
20,CCc1nnc(N/N=C/c2ccc(N3CCC(C)CC3)c([N+](=O)[O-])c2)n1N,"inconclusive: 2.82 µM [inhibitor, partial curve, poor fit]"
21,COc1ccc(C)cc1S(=O)(=O)Nc1ccc2c(c1)OCO2,"inconclusive: 3.55 µM [inhibitor, single point]"
22,CCOC(=O)c1c(NC(=O)COC(=O)c2cnccn2)sc(C(=O)NC)c1C,"inconclusive: 2 µM [activator, partial curve, poor fit]"
23,N#Cc1c[nH]n2c(NC3CCCCC3)c(-c3cccc(Cl)c3)nc12,inactive

# 3 successive compounds out of the list so far:
row,Structure (SMILES),Potency
15,CCOC(=O)C1CCN(C(=O)c2ccccc2NS(=O)(=O)c2ccc(F)cc2)CC1,"inconclusive: 31.6 µM [activator, single point]"
16,CCCN1C(=O)C2(c3ccccc31)c1c(oc3ccc(C)cc3c1=O)C(=O)N2CCOC (configuration not stated),inactive
17,Cc1ccc(NC(=O)c2ccc(CSc3nccc(C)n3)cc2)cc1,"inconclusive: 35.5 µM [inhibitor, single point]"

# Next compounds follow:

row,Structure (SMILES),Potency
1,CCCCNC(=O)c1c(N)n(CCCOC)c2nc3ccccc3nc12,"inconclusive: 23.1 µM [inhibitor, single point]"
2,O=C(CCN1C(=O)/C(=C/c2ccccc2)SC1=S)NNC(=O)c1ccncc1,inactive
3,COc1ccc(N=Nc2cc(C)c(O)c(CN3CCCCC3)c2)cc1,inactive
4,Cc1cc(NC(=O)CSc2nc3ccccc3c(=O)n2C2CCCC2)no1,"inconclusive: 0.146 µM [inhibitor, full curve, poor fit]"
5,Cc1cnc(C(=O)Nc2cccc3cccnc23)cn1,"inconclusive: 0.291 µM [inhibitor, full curve, poor fit]"
6,COc1ccc(NC(=O)CN2CCN(c3ccccc3)CC2)cc1,"inconclusive: 1.41 µM [activator, single point]"
7,CCCC(=O)NC(c1ccc(Cl)cc1Cl)c1ccc2cccnc2c1O (configuration not stated),active: 2.24 µM
8,O=c1c(S(=O)(=O)c2ccc(Cl)cc2)cn(Cc2ccccc2F)c2ccc(F)cc12,"inconclusive: 10 µM [inhibitor, partial curve, poor fit]"
9,O=C(Nc1ccc(F)cc1)Nc1ccccc1F,"inconclusive: 12.6 µM [inhibitor, single point]"
10,Cc1cc2nnc(SCC(=O)N(C)C3CCS(=O)(=O)C3)n2c2ccccc12 (configuration not stated),inactive
11,Cc1ccccc1C(=O)NNC(=S)Nc1cccc(C(F)(F)F)c1,"inconclusive: 31.6 µM [inhibitor, single point]"
12,O=C(/C=C/c1ccc(F)cc1)NC(=S)N1CCN(c2ccccn2)CC1,"inconclusive: 10 µM [activator, partial curve, poor fit]"
13,COc1ccc(NC(=O)COc2ccccc2)cc1NC(=O)c1ccco1,"inconclusive: 0.112 µM [inhibitor, partial curve, poor fit]"
14,COC(=O)c1cccc(NC(=O)CCc2ccccc2)c1,"inconclusive: 35.5 µM [activator, single point]"
15,O=C(NCc1nnc(SCc2ccc(C(F)(F)F)cc2)n1-c1ccccc1)C12CC3CC(CC(C3)C1)C2,active: 11.2 µM
16,COc1ccccc1Sc1nc(-c2ccccn2)ncc1OC,"inconclusive: 28.2 µM [inhibitor, single point]"
17,COc1ccccc1NC(=O)c1cc(Cl)nnc1Cl,"inconclusive: 31.6 µM [inhibitor, partial curve, poor fit]"
18,Cc1csc(N2CCc3ccccc32)n1,"inconclusive: 0.0146 µM [inhibitor, full curve, poor fit]"
19,O=C(CCNS(=O)(=O)c1ccc(Br)cc1)NCCc1ccc(Cl)cc1,"inconclusive: 17.8 µM [inhibitor, partial curve, poor fit]"
20,COc1ccc(-c2cc(C(=O)N3CCN(c4ccccc4OC)CC3)no2)cc1,"inconclusive: 6.31 µM [inhibitor, single point]"
21,CCC(Sc1nc2n[nH]c(C)c2c(=N)n1-c1ccc(C)c(Cl)c1)C(=O)N1CCOCC1 (configuration not stated),"inconclusive: 28.2 µM [inhibitor, single point]"
